{
  "sequences": {"note": "By UniProt entry, the sequences of proteins in these tests, tags left out. Where a name states a change or a piece, a line headed by the entry shows the natural chain unless it says otherwise.", "UniProt O82663": "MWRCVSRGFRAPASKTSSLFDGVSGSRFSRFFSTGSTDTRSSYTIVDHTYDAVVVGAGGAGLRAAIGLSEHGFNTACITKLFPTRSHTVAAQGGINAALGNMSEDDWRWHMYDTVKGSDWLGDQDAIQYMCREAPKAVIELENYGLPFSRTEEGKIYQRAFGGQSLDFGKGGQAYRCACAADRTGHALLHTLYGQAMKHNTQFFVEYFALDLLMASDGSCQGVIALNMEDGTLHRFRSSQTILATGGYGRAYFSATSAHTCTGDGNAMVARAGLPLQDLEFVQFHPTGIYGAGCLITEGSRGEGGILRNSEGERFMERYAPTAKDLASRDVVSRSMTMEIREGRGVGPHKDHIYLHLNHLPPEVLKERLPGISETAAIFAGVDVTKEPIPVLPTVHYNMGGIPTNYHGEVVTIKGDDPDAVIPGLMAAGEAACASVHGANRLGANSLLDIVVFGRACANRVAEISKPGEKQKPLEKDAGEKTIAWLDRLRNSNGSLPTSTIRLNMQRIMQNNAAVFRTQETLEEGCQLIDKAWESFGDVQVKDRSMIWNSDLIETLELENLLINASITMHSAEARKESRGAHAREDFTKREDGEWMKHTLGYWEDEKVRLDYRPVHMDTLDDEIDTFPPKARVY", "UniProt P93033": "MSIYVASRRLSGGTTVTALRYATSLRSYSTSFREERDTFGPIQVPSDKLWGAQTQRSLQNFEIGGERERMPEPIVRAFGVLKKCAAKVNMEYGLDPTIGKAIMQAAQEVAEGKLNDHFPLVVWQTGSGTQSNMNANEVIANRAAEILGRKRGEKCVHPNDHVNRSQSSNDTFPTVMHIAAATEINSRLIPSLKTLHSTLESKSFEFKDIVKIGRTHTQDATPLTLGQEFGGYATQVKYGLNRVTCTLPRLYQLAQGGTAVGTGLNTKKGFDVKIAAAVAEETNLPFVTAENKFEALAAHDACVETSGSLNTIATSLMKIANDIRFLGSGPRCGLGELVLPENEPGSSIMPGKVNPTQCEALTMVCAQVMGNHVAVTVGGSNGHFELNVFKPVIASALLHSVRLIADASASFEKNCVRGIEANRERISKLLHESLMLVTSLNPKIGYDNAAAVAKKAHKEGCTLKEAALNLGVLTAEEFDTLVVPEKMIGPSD"},
  "source": "paper PMC5440813",
  "key": {"[1]": {"target": "T1, succinate dehydrogenase (SDH) subunit SDH2-3 (Arabidopsis thaliana) (UniProt Q9FJP9)", "T1 sequence": "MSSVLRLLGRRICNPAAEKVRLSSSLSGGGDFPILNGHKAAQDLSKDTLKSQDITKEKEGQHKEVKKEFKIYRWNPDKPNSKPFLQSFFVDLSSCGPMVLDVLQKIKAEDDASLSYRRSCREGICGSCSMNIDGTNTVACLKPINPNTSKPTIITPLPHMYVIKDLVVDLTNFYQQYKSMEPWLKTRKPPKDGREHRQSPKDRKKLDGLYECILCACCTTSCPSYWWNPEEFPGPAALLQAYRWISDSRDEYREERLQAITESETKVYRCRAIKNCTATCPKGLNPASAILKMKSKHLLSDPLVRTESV", "assay": "two-hybrid; yeast two-hybrid, mating of AH109 and Y187, plates without Leu, Trp and His with 3-aminotriazole; colonies scored at 3, 5 and 8 days, positive: colonies at 3 or 5 days"}, "[2]": {"target": "T1, succinate dehydrogenase (SDH) subunit SDH2-3 (Arabidopsis thaliana)", "assay": "split reporter; split luciferase (split-LUC) in transfected Arabidopsis mesophyll protoplasts, 96-well plate, ViviRen substrate, relative luminescence; positive: top 10% of scores (3.7)"}, "[3]": {"target": "T2, isocitrate dehydrogenase (IDH) subunit IDH1 (Arabidopsis thaliana) (UniProt Q8LFC0)", "T2 sequence": "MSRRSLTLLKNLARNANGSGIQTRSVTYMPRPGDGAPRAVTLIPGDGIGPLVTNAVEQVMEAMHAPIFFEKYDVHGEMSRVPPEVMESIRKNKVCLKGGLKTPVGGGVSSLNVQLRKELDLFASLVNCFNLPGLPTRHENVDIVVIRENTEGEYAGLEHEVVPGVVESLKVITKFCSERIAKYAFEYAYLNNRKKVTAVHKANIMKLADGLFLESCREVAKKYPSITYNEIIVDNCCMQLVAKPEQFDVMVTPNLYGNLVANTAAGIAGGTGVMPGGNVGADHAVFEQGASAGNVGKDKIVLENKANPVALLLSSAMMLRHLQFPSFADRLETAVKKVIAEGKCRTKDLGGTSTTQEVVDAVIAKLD", "assay": "two-hybrid; yeast two-hybrid, mating of AH109 and Y187, plates without Leu, Trp and His with 3-aminotriazole; colonies scored at 3, 5 and 8 days, positive: colonies at 3 or 5 days"}, "[4]": {"target": "T2, isocitrate dehydrogenase (IDH) subunit IDH1 (Arabidopsis thaliana)", "assay": "split reporter; split luciferase (split-LUC) in transfected Arabidopsis mesophyll protoplasts, 96-well plate, ViviRen substrate, relative luminescence; positive: top 10% of scores (3.7)"}, "[5]": {"target": "T3, IDH1-VYNE (Arabidopsis thaliana) (UniProt Q8LFC0)", "T3 sequence": "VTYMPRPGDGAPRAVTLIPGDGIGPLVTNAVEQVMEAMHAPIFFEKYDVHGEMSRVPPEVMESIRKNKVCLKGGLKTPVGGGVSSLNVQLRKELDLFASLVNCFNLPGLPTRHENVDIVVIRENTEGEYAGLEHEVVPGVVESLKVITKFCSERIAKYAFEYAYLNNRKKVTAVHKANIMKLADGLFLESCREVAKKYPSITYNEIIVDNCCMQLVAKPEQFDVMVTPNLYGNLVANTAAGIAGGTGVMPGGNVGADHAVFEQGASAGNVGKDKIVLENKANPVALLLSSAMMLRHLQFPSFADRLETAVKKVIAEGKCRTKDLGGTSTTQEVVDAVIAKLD", "assay": "split reporter; BiFC: SCYCE- and VYNE-tagged proteins transiently expressed in Arabidopsis mesophyll protoplasts, confocal microscopy with MitoTracker orange"}, "[6]": {"target": "T4, isocitrate dehydrogenase (IDH) subunit IDH5 (Arabidopsis thaliana) (UniProt Q945K7)", "T4 sequence": "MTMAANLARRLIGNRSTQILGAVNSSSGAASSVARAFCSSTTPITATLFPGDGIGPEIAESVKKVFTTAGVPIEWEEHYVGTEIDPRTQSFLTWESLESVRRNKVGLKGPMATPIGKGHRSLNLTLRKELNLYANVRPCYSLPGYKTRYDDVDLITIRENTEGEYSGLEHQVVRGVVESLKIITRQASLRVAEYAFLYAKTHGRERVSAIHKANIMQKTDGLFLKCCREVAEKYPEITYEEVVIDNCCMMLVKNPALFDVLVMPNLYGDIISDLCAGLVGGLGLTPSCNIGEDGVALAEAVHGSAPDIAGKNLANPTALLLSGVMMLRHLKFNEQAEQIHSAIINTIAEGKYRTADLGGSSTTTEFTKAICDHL", "assay": "two-hybrid; yeast two-hybrid, mating of AH109 and Y187, plates without Leu, Trp and His with 3-aminotriazole; colonies scored at 3, 5 and 8 days, positive: colonies at 3 or 5 days"}, "[7]": {"target": "T4, isocitrate dehydrogenase (IDH) subunit IDH5 (Arabidopsis thaliana)", "assay": "split reporter; split luciferase (split-LUC) in transfected Arabidopsis mesophyll protoplasts, 96-well plate, ViviRen substrate, relative luminescence; positive: top 10% of scores (3.7)"}},
  "note": "These are yes or no findings as the source states them, for the method shown. For some of these results: Binding seen in cells or lysates may run through a third protein. Some results given as binding are weak or reduced against the parent protein; the word gives no strength.",
  "data": [
    {"molecule": "succinate dehydrogenase (SDH) subunit SDH1-1 (from UniProt O82663 1-634) (enzyme)", "values": [
      {"measurement": "binding", "setting": "[1]", "result": "binds"},
      {"measurement": "binding", "setting": "[2]", "result": "binds"}
    ]},
    {"molecule": "fumarase (FUM) 1 (from UniProt P93033 1-492) (enzyme)", "values": [
      {"measurement": "binding", "setting": "[3]", "result": "no binding"},
      {"measurement": "binding", "setting": "[4]", "result": "no binding"}
    ]},
    {"molecule": "FUM1-SCYCE (from UniProt P93033 29-492) (enzyme)", "values": [
      {"measurement": "binding", "setting": "[5]", "result": "no binding"}
    ]},
    {"molecule": "isocitrate dehydrogenase (IDH) subunit IDH2 (protein, UniProt P93032 1-367) MSRQSFSLLKNLRSIASGSKIQTRSVTYMPRPGDGKPRPVTLIPGDGVGPLVTNAVQQVMEAMHAPVYFEPFEVHGDMKSLPEGLLESIKKNKVCLKGGLKTPVGGGVSSLNVNLRKELDLFASLVNCFNLPGLASRHENVDIVVIRENTEGEYAGLEHEVVPGVVESLKVITKFCSERIAKYAFEYAYLNNRKKVTAVHKANIMKLADGLFLESCQEVAKKYPSIAYNEIIVDNCCMQLVARPEQFDVMVTPNLYGNLVANTAAGIAGGTGVMPGGNVGAEYAVFEQGASAGNVGKDTTEEQKNANPVALLLSSAMMLRHLQFPSFADRLETAVKRVIAEGNCRTEDLGGNSTTQEVVDAVIANLD", "values": [
      {"measurement": "binding", "setting": "[6]", "result": "binds"},
      {"measurement": "binding", "setting": "[7]", "result": "binds"}
    ]}
  ]
}
